Tags and fusion partners may be left off the protein sequences shown. For part of these data: Construct, isoform or probe ends are uncertain for at least one entry.

For data set [1], the system named is T1, BseRI restriction endonuclease (native) (Bacillus species R).
T1 sequence: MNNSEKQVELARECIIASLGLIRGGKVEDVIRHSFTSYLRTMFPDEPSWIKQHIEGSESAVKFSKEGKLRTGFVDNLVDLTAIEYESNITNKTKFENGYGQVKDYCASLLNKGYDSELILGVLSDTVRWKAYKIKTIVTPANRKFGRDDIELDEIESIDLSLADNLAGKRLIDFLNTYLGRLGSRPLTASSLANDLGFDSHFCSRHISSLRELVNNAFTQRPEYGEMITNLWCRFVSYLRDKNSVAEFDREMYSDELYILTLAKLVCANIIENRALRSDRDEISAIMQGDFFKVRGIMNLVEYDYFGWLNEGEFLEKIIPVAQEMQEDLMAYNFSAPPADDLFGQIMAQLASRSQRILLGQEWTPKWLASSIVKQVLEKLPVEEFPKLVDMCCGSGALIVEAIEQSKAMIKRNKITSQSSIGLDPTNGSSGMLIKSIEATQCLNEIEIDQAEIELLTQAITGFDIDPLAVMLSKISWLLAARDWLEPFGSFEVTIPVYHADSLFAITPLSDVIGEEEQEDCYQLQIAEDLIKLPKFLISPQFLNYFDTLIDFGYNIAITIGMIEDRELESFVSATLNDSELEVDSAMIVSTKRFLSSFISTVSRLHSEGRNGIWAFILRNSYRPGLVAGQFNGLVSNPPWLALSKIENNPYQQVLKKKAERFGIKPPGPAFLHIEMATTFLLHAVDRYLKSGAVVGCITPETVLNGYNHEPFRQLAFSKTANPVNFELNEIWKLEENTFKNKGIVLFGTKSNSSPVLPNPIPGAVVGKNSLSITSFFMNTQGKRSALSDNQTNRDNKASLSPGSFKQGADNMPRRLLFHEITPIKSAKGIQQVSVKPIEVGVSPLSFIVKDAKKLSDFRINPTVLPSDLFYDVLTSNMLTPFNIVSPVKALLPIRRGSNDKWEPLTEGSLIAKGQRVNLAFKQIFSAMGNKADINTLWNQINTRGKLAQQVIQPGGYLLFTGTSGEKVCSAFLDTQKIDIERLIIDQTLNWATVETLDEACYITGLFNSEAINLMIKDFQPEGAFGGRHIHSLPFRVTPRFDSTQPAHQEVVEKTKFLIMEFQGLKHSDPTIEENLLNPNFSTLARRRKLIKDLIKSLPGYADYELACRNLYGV
As to the kind of experiment: enzyme reaction in vitro. The following applies: lambda DNA digested with purified native BseRI; purified native protein.

Data set [2] deals with T2, BseRI restriction endonuclease (recombinant) (Bacillus species R).
T2 sequence: T1 sequence
In words: enzyme reaction in vitro. The conditions noted are these: lambda DNA digested with IPTG-induced cell extract; protein in a lysate after overexpression.

In data set [3] the test system is T3, M.BseRI methylase (Bacillus species R).
T3 sequence: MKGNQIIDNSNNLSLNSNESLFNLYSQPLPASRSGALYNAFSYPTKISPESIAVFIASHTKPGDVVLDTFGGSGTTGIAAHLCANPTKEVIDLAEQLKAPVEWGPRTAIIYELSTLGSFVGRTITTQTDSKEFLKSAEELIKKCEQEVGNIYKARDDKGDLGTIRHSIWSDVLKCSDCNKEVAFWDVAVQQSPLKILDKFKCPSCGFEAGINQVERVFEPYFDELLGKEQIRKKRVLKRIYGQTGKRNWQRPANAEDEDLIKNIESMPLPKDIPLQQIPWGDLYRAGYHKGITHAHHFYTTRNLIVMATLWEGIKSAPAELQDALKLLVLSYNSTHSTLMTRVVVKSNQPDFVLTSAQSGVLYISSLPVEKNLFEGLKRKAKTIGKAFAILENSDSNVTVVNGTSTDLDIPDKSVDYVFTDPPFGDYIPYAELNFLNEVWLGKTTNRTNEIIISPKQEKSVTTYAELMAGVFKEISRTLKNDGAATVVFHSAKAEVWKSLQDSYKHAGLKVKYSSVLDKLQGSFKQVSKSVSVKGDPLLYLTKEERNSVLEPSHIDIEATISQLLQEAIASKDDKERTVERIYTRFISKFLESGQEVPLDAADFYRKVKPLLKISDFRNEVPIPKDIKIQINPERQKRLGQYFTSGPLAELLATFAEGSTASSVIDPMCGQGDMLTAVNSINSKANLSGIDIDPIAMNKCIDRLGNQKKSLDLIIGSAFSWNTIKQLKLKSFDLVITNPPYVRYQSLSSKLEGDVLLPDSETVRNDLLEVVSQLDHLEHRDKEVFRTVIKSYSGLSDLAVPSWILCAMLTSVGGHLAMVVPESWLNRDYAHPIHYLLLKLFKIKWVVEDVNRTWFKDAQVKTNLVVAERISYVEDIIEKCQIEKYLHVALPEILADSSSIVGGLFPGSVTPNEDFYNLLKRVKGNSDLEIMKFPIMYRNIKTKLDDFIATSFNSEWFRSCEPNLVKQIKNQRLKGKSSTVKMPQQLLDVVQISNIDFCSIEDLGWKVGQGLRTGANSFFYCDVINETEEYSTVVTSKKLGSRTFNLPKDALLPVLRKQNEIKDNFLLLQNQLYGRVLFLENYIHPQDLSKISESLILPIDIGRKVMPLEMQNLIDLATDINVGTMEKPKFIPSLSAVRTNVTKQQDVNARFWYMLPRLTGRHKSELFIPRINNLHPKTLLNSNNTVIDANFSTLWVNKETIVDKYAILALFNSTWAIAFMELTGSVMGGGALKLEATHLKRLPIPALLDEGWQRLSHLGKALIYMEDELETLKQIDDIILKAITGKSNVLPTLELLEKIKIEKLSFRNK
In words: activity in cells. The following applies: 10 of 36 plasmids resistant to BseRI digestion, both vector sites fully modified; protein in cells; protein details: expressed from pACYC184 in E. coli ER2683; only the site is given.

With “GAGGAG (double strand) [BseRI recognition site in lambda DNA]”, the “activity on this sequence” value in data set [1] and in data set [2] was “active” throughout. Consider “GAGGAG (double strand) [BseRI sites (2) in pACYC184-BseRIM plasmid]”, for which, in data set [3], the “activity on this sequence” value was “active”.

(Values after patent publication US6593122.)
